PubChem BioAssay AID652259 – Drosophila RNAi Screening Center, 2013

- Screen: 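Knock-downs that push a Wingless-driven reporter up or down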 (primary screen)
- System: Drosophila clone 8 imaginal disc epithelial cells
- Reagents: long dsRNA against Drosophila genes
- Treatment: pathway stimulated by co-transfected Wingless expression plasmid
- Read-out: 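Firefly luciferase from a tcf-site Wingless reporter, measured alongside co-transfected Renilla luciferase that tracks transfection; pathway stimulated by a Wingless plasmid; the firefly-to-Renilla ratio is not deposited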
- Direction: firefly reporter light: higher = more Wg reporter light, before normalisation; Renilla control light: higher = more transfected or surviving cells
- Hit rule: 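a knock-down is a candidate when at least two out of four statistical tests show it departing from its plate mean; one test alone signals a weak candidate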
- Calls: active = candidate regulator (raises or lowers reporter); inactive = not a candidate
The screen tested about 22,000 reagents; this is an unselected part of those that have a named target and a result. In the full data, 233 (1.1%) were called active. 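Light values are raw, unnormalised plate reads; the ratio scores behind the reporter calls were not deposited.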 A plus sign joins genes that one reagent is predicted to hit. Reagent sequences are not shown. Not given: the amount of reagent, the time to read-out, the dose of the treatment.

Knock-down of AANATL6 (Arylalkylamine N-acetyltransferase-like 6) resulted in: firefly reporter light, replicate 1 = 6819; Renilla control light, replicate 1 = 2247; inactive.
Jra (Jun-related antigen) gave firefly reporter light, replicate 1 = 18747; Renilla control light, replicate 1 = 5206; inactive.
Knock-down of Skadu gave: firefly reporter light, replicate 1 = 22747; Renilla control light, replicate 1 = 9815; inactive.
CG6567 + CG42394 showed firefly reporter light, replicate 1 = 7.82e5; firefly reporter light, replicate 2 = 8.67e5; Renilla control light, replicate 1 = 4.09e5; Renilla control light, replicate 2 = 3.95e5; inactive.
Silencing of CG4546 came out at: firefly reporter light, replicate 1 = 11293; Renilla control light, replicate 1 = 1413; inactive.
Against CG10589, the values are firefly reporter light, replicate 1 = 18481; Renilla control light, replicate 1 = 6295; inactive.
CG15870 gave firefly reporter light, replicate 1 = 8209; Renilla control light, replicate 1 = 3100; inactive.
With knock-down of CG10863, the screen gave firefly reporter light, replicate 1 = 7088; Renilla control light, replicate 1 = 2848; inactive.
Silencing of CG43342 came out at: firefly reporter light, replicate 1 = 2928; Renilla control light, replicate 1 = 1351; inactive.
Against CG8520, the entry reads firefly reporter light, replicate 1 = 9312; Renilla control light, replicate 1 = 2629; inactive.
Depletion of CG9459 gave: firefly reporter light, replicate 1 = 17184; Renilla control light, replicate 1 = 5078; inactive.
With knock-down of CG4036 the results were firefly reporter light, replicate 1 = 3796; Renilla control light, replicate 1 = 2737; inactive.

An excerpt of the results above, for reference:
CG10863 → firefly reporter light, replicate 1: 7088; Renilla control light, replicate 1: 2848; Outcome: inactive
CG43342 → firefly reporter light, replicate 1: 2928; Renilla control light, replicate 1: 1351; Outcome: inactive
